No constants are given. Whether binding was seen depends on the method and setting.

Amino acid sequences for entries named in this document (tags omitted).
UniProt Q9VDD3: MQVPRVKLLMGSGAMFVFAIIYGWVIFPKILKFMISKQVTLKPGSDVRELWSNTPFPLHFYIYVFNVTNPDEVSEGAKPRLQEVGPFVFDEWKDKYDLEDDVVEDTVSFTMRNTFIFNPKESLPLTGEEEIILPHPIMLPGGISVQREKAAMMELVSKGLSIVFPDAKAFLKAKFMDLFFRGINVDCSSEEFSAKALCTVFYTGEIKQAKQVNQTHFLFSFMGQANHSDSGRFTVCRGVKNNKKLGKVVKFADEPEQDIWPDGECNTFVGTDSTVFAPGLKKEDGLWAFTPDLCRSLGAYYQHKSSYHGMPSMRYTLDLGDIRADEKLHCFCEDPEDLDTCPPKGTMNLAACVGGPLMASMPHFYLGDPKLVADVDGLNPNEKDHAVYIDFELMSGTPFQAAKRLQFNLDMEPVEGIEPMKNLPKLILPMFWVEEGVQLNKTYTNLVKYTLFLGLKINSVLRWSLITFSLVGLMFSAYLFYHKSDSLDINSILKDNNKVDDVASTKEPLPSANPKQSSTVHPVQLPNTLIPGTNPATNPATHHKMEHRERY

The experiment deals with Drosophila sensory neuron membrane protein 1 with a C-terminal EGFP tag (SNMP1:EGFP) (D. melanogaster) (UniProt Q9VDD3). In words: single-molecule imaging, counting of EGFP photobleaching steps (total internal reflection fluorescence microscopy); SNMP1:EGFP in the plasma membrane of Xenopus oocytes, 12-24 h after cRNA injection (0.02 ug/ul, 50 nl), expression at 15 °C; bleaching steps of single spots examined by eye.

On to “Drosophila sensory neuron membrane protein 1 with a C-terminal EGFP tag (SNMP1:EGFP) (from UniProt Q9VDD3 1-551)”, for which the binding entry is listed as “no binding”.

For the origin of these results see article PMC4912623, “A CD36 ectodomain mediates insect pheromone detection via a putative tunnelling mechanism” (Nature Communications, 2016).
